Laboratory results reported in ChEMBL document CHEMBL5154896, “Discovery of a Novel Class of d-Amino Acid Oxidase Inhibitors Using the Schrödinger Computational Platform” (J Med Chem, 2022).

Columns and labels:
[1] = Inhibition of sigma receptor in guinea pig brain membrane incubated for 30 mins by scintillation counting based radiometry assay; assay type: cell membranes, Cavia porcellus, Cell membrane
[2] = Inhibition of sodium channel (unknown origin); design: species or system Homo sapiens
HepG2 [3] = assay: Cytotoxicity against human HepG2 cells assessed as reduction in cellular ATP production measured after 72 hrs; assay type: functional
HepG2 [4] = assay: Mitotoxicity in human HepG2 cells measured after 24 hrs by Glu/Gal assay; assay type: toxicity, cell-based; details: hepg2, 24 h

## O=c1[nH]cc(CSc2ccc(C(F)F)cc2)[nH]c1=O
[1]
  IC50: > 10 µM
[2]
  IC50: > 10 µM
HepG2 [3]
  Activity: >100 µM
HepG2 [4]
  Activity: > 100 µM
